Experimental data from PubChem BioAssay AID493014 (National Center for Advancing Translational Sciences (NCATS), 2011).
The other results are listed elsewhere or left out. The main result of the screen is listed elsewhere. These columns were measured beside it and carry no call. Compounds called inactive in the main read-out are mostly missing here. Words in brackets tell the shape of the fitted curve; partial curves, single points and poor fits give uncertain potencies.

Assay: qHTS Assay to Find Inhibitors of Chronic Active B-Cell Receptor Signaling
Conditions: ABC-DLBCL IkBa-CBG/CBR reporter, luminescence ratio (green luciferase fused to IkBa over red control in TMD8 lymphoma cells), 4 h
Procedure, shortened: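 Concentration-response series (up to 46 uM) were applied to TMD8 dual-reporter cells for 4 h at 37C with doxycycline. Green/red ratio, after filter-overlap correction, defined %Activity; red signal alone was normalised to basal cells and zero luminescence.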

[1] = measured here: CBR red luminescence, cell number
[2] = measured here: IkBa-CBG green luminescence

Row | SMILES | AC50 [1] | AC50 [2]
1 | O=C(c1cccs1)c1ccc(-c2cccs2)s1 | 7.08 µM [falling, partial curve] | –
2 | COc1ccccc1N(CC(=O)NCc1ccccn1)S(C)(=O)=O | 6.51 µM [falling, single point] | –
3 | Cc1cccc(CSc2nnnn2-c2ccccc2)c1 | 3.26 µM [falling, single point] | –
4 | O=C(NCC1COc2ccccc2O1)c1cccs1 (stereo not given) | 12.6 µM [rising, partial curve, poor fit] | –
5 | CC(C)=C1C2CCC1C1C(=O)N(c3nc(-c4ccccc4)c(C)s3)C(=O)C21 (stereo not given) | 1.3 µM [rising, full curve] | –
6 | O=C(c1ccc(Br)s1)N1CCN(c2ncccn2)CC1 | 1.3 µM [rising, full curve] | –
7 | COc1ccc(NC(=O)c2ccc(NC(=O)C3CC3)cc2)cc1 | 3.98 µM [rising, full curve] | –
8 | CCCn1nc(C(=O)Nc2ccc3c(c2)OCCO3)c2ccccc2c1=O | 29.1 µM [falling, single point] | –
9 | O=C(CN1CCN(C2CCCCC2)CC1)Nc1ccccc1-c1ccccc1 | 4.11 µM [falling, full curve, poor fit] | –
10 | CC1CC(C)CN(CCCNC(=O)c2ccc3c(c2)N(Cc2ccccc2)C(=O)c2ccccc2S3=O)C1 (stereo not given) | 0.1 µM [falling, full curve, poor fit] | –
11 | Cc1ccc(-c2csc(C3=C(O)CN(NC(=O)c4ccco4)C3=N)n2)cc1 | 8.91 µM [rising, partial curve, poor fit] | –
12 | C/C(=N\OC(=O)Nc1ccccc1)c1cnn(-c2cc(C(F)(F)F)cc(C)n2)c1C | 11.2 µM [rising, partial curve, poor fit] | –
13 | CN(CC(=O)Nc1c(Cl)cccc1Cl)C(=O)C1=COCCO1 | 20.6 µM [rising, single point] | –
14 | COc1cccc(CN2CCN(Cc3ccc(O)cc3)CC2CCO)c1 (stereo not given) | 3.55 µM [rising, full curve, poor fit] | –
15 | CN(Cc1ccccc1)C(=O)c1[nH]cnc1C(=O)Nc1ccc(Cl)cc1 | 0.651 µM [rising, full curve, poor fit] | –
16 | CN(C)c1ccnc(-n2cccc2/C=N/OCc2ccccc2)c1C#N | 4.61 µM [rising, full curve, poor fit] | –
17 | COc1ccc(CC(=O)O/N=C(\N)c2ccccc2)cc1OC | 0.501 µM [rising, full curve, poor fit] | –
18 | COc1cc(CNn2c(C)n[nH]c2=S)cc(Cl)c1OCc1ccc(F)cc1 | 0.0651 µM [rising, full curve, poor fit] | –
19 | CCN1CCN(Cc2ccc(NC(=O)c3cc(NC(=O)c4cc5cccc(OC)c5o4)cc(OC)c3)cc2C(F)(F)F)CC1 | 11.2 µM [falling, partial curve] | –
20 | CC(=O)Nc1ccc(S(=O)(=O)NNC(=O)c2cccc(Cl)c2)cc1 | 0.282 µM [rising, full curve, poor fit] | –
21 | COc1ccc(CCNC(=O)c2ccc3nc(-c4ccco4)c(-c4ccco4)nc3c2)cc1OC | 12.6 µM [falling, partial curve] | –

Row | SMILES | AC50 [1] | AC50 [2]
22 | O=C(CCCCCNC(=S)Nc1ccc(Cl)cc1)C[N+](=O)[O-] | 10 µM [falling, partial curve] | –
23 | CC(NCCC(c1ccccc1)c1ccccc1)c1ccccc1 (stereo not given) | 11.2 µM [falling, partial curve, poor fit] | 15.8 µM [rising, partial curve, poor fit]
24 | Cc1cc(C)cc(N2C(=O)CC(N(C(=O)c3ccco3)c3cc(C)cc(C)c3)C2=O)c1 (stereo not given) | 14.6 µM [rising, partial curve, poor fit] | –
25 | Cc1ccc(S(=O)(=O)c2ncccc2[N+](=O)[O-])cc1 | 20 µM [falling, partial curve, poor fit] | –
26 | O=C(Nc1ccc(Cl)cc1C(=O)NCCN1CCOCC1)c1ccc(Cl)cc1Cl | 6.51 µM [rising, single point] | –
27 | CCN(c1ccccc1)c1ncnc2c1cnn2-c1ccc(OC)cc1 | 11.2 µM [rising, partial curve, poor fit] | –
28 | CC(C)(C)c1ccc(C(=O)NCC(=O)NCC(C)(C)N2CCOCC2)cc1 | 6.51 µM [rising, partial curve, poor fit] | –
29 | CC(C)CC(=O)Nc1ccccc1N1CCN(C(=O)c2ccccc2)CC1 | 29.1 µM [falling, single point] | –
30 | O=C(N/N=C/c1ccc(Cl)c(Cl)c1)c1ccc2nc[nH]c2c1 | 2 µM [falling, full curve, poor fit] | –
31 | COc1ccc(-c2nc(NC(=O)Cn3ccc(C(F)(F)F)n3)sc2C)cc1 | 29.1 µM [falling, single point] | –
32 | CC(C)S(=O)(=O)C1=NSC2=NC(=O)/C(=C\c3ccc(-c4ccccc4)o3)C(=N)N21 | 29.1 µM [falling, single point] | 8.2 µM [rising, partial curve, poor fit]
33 | C=CCSc1nsc(NC(=O)Nc2ccc(F)cc2)n1 | 1.26 µM [falling, full curve] | –
34 | CCC(CO)Oc1cc(NC(=O)c2cccc(OC)c2)c2ncn(C(C)C)c2c1 (stereo not given) | 29.1 µM [falling, single point] | –
35 | C#CCOC(=O)C(NC(=O)c1ccccc1)=C(C)C | 0.13 µM [rising, full curve, poor fit] | –
36 | COc1ccccc1OCCCC(=O)Nc1nccs1 | 12.6 µM [falling, partial curve] | –
37 | COc1cccc(NC(=O)CSc2nnc(Cc3cccn3C)n2-c2ccc(F)cc2)c1 | 29.1 µM [falling, partial curve, poor fit] | –
38 | Cc1cnc(NS(=O)(=O)c2ccc(Cl)cc2)c(Br)c1 | 35.5 µM [falling, single point] | –
39 | COc1ccc(Nc2cc(C(=O)NCCCN3CCN(C)CC3)c3ccccc3n2)c(OC)c1 | 5.62 µM [falling, partial curve] | –
40 | COc1ccc(C(=O)N2CCN(S(=O)(=O)c3ccc(Cl)cc3)CC2)cc1OC | 0.00651 µM [falling, full curve, poor fit] | –
41 | CC(C)(C)SCCNC(=O)/C=C/c1ccc(F)cc1 | 4.61 µM [rising, partial curve, poor fit] | –
42 | COc1cc(N)c(Cl)cc1C(=O)OCC(=O)c1ccc2c(c1)NC(=O)CO2 | 16.4 µM [falling, partial curve] | –

Another view of part of the listing above.
Row	SMILES	AC50 [1]	AC50 [2]
22	O=C(CCCCCNC(=S)Nc1ccc(Cl)cc1)C[N+](=O)[O-]	10 µM [falling, partial curve]	–
23	CC(NCCC(c1ccccc1)c1ccccc1)c1ccccc1 (stereo not given)	11.2 µM [falling, partial curve, poor fit]	15.8 µM [rising, partial curve, poor fit]
24	Cc1cc(C)cc(N2C(=O)CC(N(C(=O)c3ccco3)c3cc(C)cc(C)c3)C2=O)c1 (stereo not given)	14.6 µM [rising, partial curve, poor fit]	–
26	O=C(Nc1ccc(Cl)cc1C(=O)NCCN1CCOCC1)c1ccc(Cl)cc1Cl	6.51 µM [rising, single point]	–
27	CCN(c1ccccc1)c1ncnc2c1cnn2-c1ccc(OC)cc1	11.2 µM [rising, partial curve, poor fit]	–
28	CC(C)(C)c1ccc(C(=O)NCC(=O)NCC(C)(C)N2CCOCC2)cc1	6.51 µM [rising, partial curve, poor fit]	–
29	CC(C)CC(=O)Nc1ccccc1N1CCN(C(=O)c2ccccc2)CC1	29.1 µM [falling, single point]	–
30	O=C(N/N=C/c1ccc(Cl)c(Cl)c1)c1ccc2nc[nH]c2c1	2 µM [falling, full curve, poor fit]	–
31	COc1ccc(-c2nc(NC(=O)Cn3ccc(C(F)(F)F)n3)sc2C)cc1	29.1 µM [falling, single point]	–
32	CC(C)S(=O)(=O)C1=NSC2=NC(=O)/C(=C\c3ccc(-c4ccccc4)o3)C(=N)N21	29.1 µM [falling, single point]	8.2 µM [rising, partial curve, poor fit]
33	C=CCSc1nsc(NC(=O)Nc2ccc(F)cc2)n1	1.26 µM [falling, full curve]	–
34	CCC(CO)Oc1cc(NC(=O)c2cccc(OC)c2)c2ncn(C(C)C)c2c1 (stereo not given)	29.1 µM [falling, single point]	–
35	C#CCOC(=O)C(NC(=O)c1ccccc1)=C(C)C	0.13 µM [rising, full curve, poor fit]	–
36	COc1ccccc1OCCCC(=O)Nc1nccs1	12.6 µM [falling, partial curve]	–
37	COc1cccc(NC(=O)CSc2nnc(Cc3cccn3C)n2-c2ccc(F)cc2)c1	29.1 µM [falling, partial curve, poor fit]	–
38	Cc1cnc(NS(=O)(=O)c2ccc(Cl)cc2)c(Br)c1	35.5 µM [falling, single point]	–
39	COc1ccc(Nc2cc(C(=O)NCCCN3CCN(C)CC3)c3ccccc3n2)c(OC)c1	5.62 µM [falling, partial curve]	–

Next structures

Row | SMILES | AC50 [1] | AC50 [2]
43 | O=C(O)c1ccc(COc2ccc3ccccc3c2/C=C2/NC(=O)N(Cc3ccc(F)cc3)C2=O)cc1 | 2.82 µM [falling, partial curve, poor fit] | –
44 | COc1ccc(OC)c(Nc2nc(-c3ccc(O)c(O)c3)cs2)c1 | 32.6 µM [falling, single point] | –
45 | CC(C)C[C@H](NC(=O)c1nc[nH]c1C(=O)NC1CCN(C(=O)OC(C)(C)C)CC1)C(=O)OCc1ccccc1 | 14.1 µM [falling, single point] | –
46 | CCOC(=O)CN/C=C(\C#N)c1ccc(F)cc1 | 22.4 µM [rising, single point] | –
47 | CC(C)Cn1c(=O)c2c(nc3n2CCCN3Cc2ccccc2)n(C)c1=O | 11.2 µM [falling, single point] | –
48 | COc1ccc(Cl)cc1NC(=O)CN1CCC(n2nnc3ccccc32)CC1 | 14.6 µM [rising, partial curve, poor fit] | –
49 | O=[N+]([O-])c1ccc2nc(NS(=O)(=O)c3ccc(F)cc3)sc2c1 | 2.82 µM [rising, partial curve, poor fit] | –
50 | S=C(NCc1ccccc1)NCc1ccc(Cl)cc1 | 0.891 µM [rising, full curve, poor fit] | –
51 | COc1ccc(NC(=O)Cn2nnc(C(=O)NCc3ccccc3OC)c2N)cc1Cl | 14.6 µM [rising, partial curve, poor fit] | –
52 | COc1cccc(NC(=O)c2ccc3c(c2)OCCO3)c1 | 3.98 µM [falling, partial curve, poor fit] | –
53 | CCOC(=O)c1c(NC(=O)C[n+]2ccc(Cc3ccccc3)cc2)sc(C)c1C | 35.5 µM [falling, single point] | –
54 | NC(=O)N/N=C/c1ccc(OCc2cccc(Cl)c2)cc1 | 15.8 µM [rising, partial curve] | –
55 | C/C(=N/NC(=O)COc1cc(C)ccc1C(C)C)C(=O)O | – | 11.2 µM [falling, partial curve]
56 | Cc1cc(=O)n2nc(N3CCCC(C(=O)NCc4ccc5c(c4)OCO5)C3)sc2n1 (stereo not given) | 16.4 µM [rising, partial curve, poor fit] | –
57 | O=C1c2ccccc2-c2onc3ccc(N4CCCC4)c1c23 | 10 µM [falling, partial curve, poor fit] | –
58 | O=c1[nH]c(/C=C/c2ccc(Br)cc2)nc2ccccc12 | 4.47 µM [rising, partial curve, poor fit] | –
59 | COc1cccc(NC(=O)c2ccc3c(c2)CCCC3)c1 | 11.2 µM [falling, partial curve] | –
60 | Cc1ccccc1SCC(=O)NNC(=O)c1ccccc1O | 17.8 µM [falling, single point] | –
61 | O=C1CCCC(O)=C1C=Nc1cccc(C(F)(F)F)c1 | 10 µM [rising, partial curve] | –
62 | CC1SC2(NC1=O)C1CC3CC(C1)CC2C3 (stereo not given) | 5.62 µM [rising, partial curve, poor fit] | –
63 | CC(=O)Nc1ccc(S(=O)(=O)Nc2nc3ccccc3nc2Nc2ccc3ccccc3c2)cc1 | 29.1 µM [falling, single point] | –
